PMC10112894
Results are given in words; binding and its absence hold for the method and conditions named. In cells and extracts the contact can be indirect. Some results given as binding are weak or reduced against the parent protein; the word gives no strength. Tags and fused reporters may be left off the sequences shown.

What was measured:
ASNA-1::GFP (C. elegans) [1] = biological target: T1, ASNA-1::GFP (C. elegans) (UniProt P30632); experiment: condition: only the two proteins expressed in separate tissues (neurons and body wall muscle), so that they meet only after lysis; co-IP; control for binding after lysis: ASNA-1::GFP under a pan-neuronal promoter and 3xFlag::ENPL-1 under a body wall muscle promoter (separate tissues of the same worms); anti-GFP beads, western blot
T1 sequence: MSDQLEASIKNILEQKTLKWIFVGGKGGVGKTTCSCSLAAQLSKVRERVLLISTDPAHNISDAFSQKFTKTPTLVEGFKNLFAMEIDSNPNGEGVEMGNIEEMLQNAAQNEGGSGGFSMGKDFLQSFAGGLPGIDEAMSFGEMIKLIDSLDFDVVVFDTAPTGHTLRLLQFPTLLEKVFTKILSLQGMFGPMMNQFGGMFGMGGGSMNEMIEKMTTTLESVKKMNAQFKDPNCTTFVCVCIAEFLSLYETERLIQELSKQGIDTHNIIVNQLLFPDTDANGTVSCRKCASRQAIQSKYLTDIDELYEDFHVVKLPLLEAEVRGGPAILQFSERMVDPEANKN

ASNA-1::GFP (C. elegans) [2] = biological target: T1, ASNA-1::GFP (C. elegans); experiment: co-IP; anti-GFP magnetic beads (ChromoTek GFP-Trap) with 800-1000 µg lysate of adult worms co-expressing both tagged proteins, 1 h at 4°C; lysis in 10 mM Tris-HCl pH 7.4, 150 mM NaCl, 5 mM EDTA, 0.5% NP40; western blot. Also done with ablated ASI neurons (oyIs84), in daf-28(tm2308), kpc-1(gk8), ins-4(tm3620), unc-31(e928) and sod-2(gk257) mutants, and after 5 mM H2O2 for 30 min

B1: 3xFlag::ENPL-1 (protein, UniProt Q22235 24-760)
chain: EDEIEDAPKETKEETREEDSIKLDGLSVSQIKELRSKAEKHEFQAEVNRMMKLIINSLYRNKEIFLRELISNASDALDKIRLLSLTDPEQLRETEEMSVKIKADRENRLLHITDTGVGMTRQDLINNLGTIARSGTSEFLSKLMDTATSSDQQQDLIGQFGVGFYAAFLVADRVVVTTKNNDDDQYIWESDSASFTISKDPRGNTLKRGTQITLYLKEEAADFLEPDTLKNLVHKYSQFINFDIFLWQSKTEMVEEAVEEEPATTEDGAVEEEKEEKKTKKVEKTTWDWEKVNNVKPIWMRKPNQVEEDEYKQFYKSITKDSEEPLSHVHFSAEGEVSFRSILYVPKKSPNDMFQNYGKVIENIKLYVRRVFITDDFADMLPKYLSFIRGIVDSDDLPLNVSRENLQQHKLLKVIKKKLVRKVLDMLKKLDGAQFDDFWSEFSTNIKLGVMEDPSNRMRLAKLLRFQSSNDADKTTTLAAYVERMKEKQDAIYYMAGTSRKEVETSPFVERLIAKGYEVLFLTEAVDEYCIQAMPEYESKKFQNVAKEGVTIDDGEKAKEAHKGLEEEFKPLTDWLKETALKDLIEKAVVSQRLVKSPSALVASSYGWSGNMERIMKSQAYAKAKDPTQDFYATQKKTFEINPRHPVIKELLKRVTASEEDTTAASTAKLLFETATLRSGFSLQDQVGFADRIEAVLRQSLDVSQDAQVETEQHIEEAEPEPEAAEETTIEEEHSEL
binding (ASNA-1::GFP (C. elegans) [1]): no binding
binding (ASNA-1::GFP (C. elegans) [2]): binds
